## Results of single-concentration screens

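Assay of Toxoplasma gondii numbers, read through their beta-galactosidase reporter with a colour substrate. Compounds at 50 µM. Higher reads as fewer parasites (inferred from which compounds were picked for retests). About 18,000 compounds were tested under these conditions; 0.94% (about 170) showed 50% or more at least once.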

Results are given as percent effect. How 0% and 100% were set is not recorded. Most values in the screen are low, and negative values occur. This is an unselected part of the compounds tested.

Result for O=C(CCc1ccc(F)cc1)NCC1CCNC1 (centres undefined) was -2.425%.
Result for OCC(O)CSCc1c(Cl)ccc2cccnc12 (centres undefined) was 5.145%.
Result for NCCc1cn2c(n1)CCC2 was -9.17%.
Result for CN1CCN(C(C)(C)CNC(=O)Nc2cn[nH]c2)CC1 was -4.528%.
Result for Cc1cc(CO)c(C)o1 was -2.492%.
Result for O=C(c1ccc(F)cc1)N1C[C@@H]2CCN[C@@H]2C1 was -7.773%.
Result for COCC(C)NC(=O)c1cccc(NS(C)(=O)=O)c1 (centres undefined) was -5.045%.
Result for NC(CO)Cc1ccncc1 (centres undefined) was 2.871%.
Result for CC(C)(C)OC(=O)c1cc[nH]n1 was -24.28%.
Result for CCn1ccnc1SC1CCCCNC1=O (centres undefined) was 6.02%.
Result for CN1CCCC1CN1CCN(c2nc[nH]n2)CC1 (centres undefined) was -6.829%.
Result for COC(=O)CCCC(=O)N(C)c1ccccc1F was -3.775%.
Result for OC1CCN(Cc2cccc(F)c2F)CC1 was 1.756%.
Result for CC(C)N(CC(N)=O)CC(=O)NCCc1cccs1 was 12.36%.
Result for O=C(Cn1cccn1)Nc1ccccc1Br was 7.764%.
Result for CCC(C)(C#N)NC(=O)c1ccc(C)nc1 (centres undefined) was -2.889%.
Result for CN(C)C(=O)CN(C)S(=O)(=O)Cc1c(Cl)cccc1Cl was 31.68%.
Result for CC(C)Cc1cc(C(=O)NCC2CCCN(C)C2)[nH]n1 (centres undefined) was -9.423%.
Result for CNc1cc(CN(C)Cc2ccccc2)ccn1 was -3.552%.
Result for CNC(=O)CC1CCN(CC2(SC)CCC2)CC1 was -4.3%.
Result for O=C(CCN1CCC(O)C1)N1CCOCC1 (centres undefined) was 5.089%.
Result for COC(=O)c1ccc(C(=O)NC2CC2)nc1 was -26.89%.
Result for COCCN(C)CCNC(=O)c1c(F)cccc1F was 1.872%.
Result for Cc1sc(S(N)(=O)=O)cc1N was -1.053%.
Result for CC(C)(C)OC(=O)CNC1CCOCC1 was -4.673%.
Result for CCC1(C(=O)Nc2ccc3[nH]ncc3c2)CCNC1 (centres undefined) was 1.032%.
Result for CN1CCCC(CNC(=O)NCc2ccncc2)C1 (centres undefined) was -0.1051%.
Result for COc1ccc(C(=O)N2CCCNCC2)cc1 was 3.457%.
Result for CN1CCC(N(C)C(=O)c2ccccc2F)CC1 was -1.163%.
Result for Cc1cncc(C#N)c1 was -1.191%.
Result for CC(C)(C)OC(=O)N1CCC(n2ccc(N)n2)C1 (centres undefined) was 7.194%.
Result for COc1ccc(CN2CCCC(N(C)C)CC2)cn1 (centres undefined) was 21.21%.
Result for CC(=O)c1ccc(S(=O)(=O)NCc2ccco2)cc1 was -0.9197%.
Result for CN(C)Cc1ccc2ccccc2n1 was 2.846%.
Result for NCCC1(O)C(=O)Nc2ccccc21 (centres undefined) was -12.46%.
Result for CCOCC(=O)N1C[C@@H](CO)[C@H](N(C)C)C1 was 1.062%.
Result for Cn1nnnc1SCC(=O)Nc1cc(Cl)ccc1C#N was 7.857%.
Result for NC(=O)C1CCCN(CCc2ccccc2)C1 (centres undefined) was -14.04%.

2 of the entries, repeated:

compound,Percent Effect
COCCN(C)CCNC(=O)c1c(F)cccc1F,1.872
Cc1cncc(C#N)c1,-1.191

Measurements from “University of Dundee, Small-Polar-MMV Screening Library” (2021), ChEMBL document CHEMBL3988442.